According to the supplement of paper PMC12823440, “Inhibitors supercharge kinase turnover through native proteolytic circuits” (Nature, 2025):
Structures can show the parent of a compound that is named as a salt. Some of the results follow. Hit calls seldom repeat between salt and free forms of one compound.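 Kinases were expressed as nanoluciferase fusions in K562 cells and luminescence was read every 4 h between 2 and 18 h as percent of control, DMSO set to 100% and a positive control to 0%. A time point counts as decreased when the signal drops significantly (2 sigma). The hit call is the authors' own, does not follow from the count of time points alone, and its rule is not shown.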

By UniProt entry, the sequences of proteins in these tests, tags left out. Where a name states a change or a piece, a line headed by the entry shows the natural chain unless it says otherwise.
UniProt Q16288, whole entry, looked up: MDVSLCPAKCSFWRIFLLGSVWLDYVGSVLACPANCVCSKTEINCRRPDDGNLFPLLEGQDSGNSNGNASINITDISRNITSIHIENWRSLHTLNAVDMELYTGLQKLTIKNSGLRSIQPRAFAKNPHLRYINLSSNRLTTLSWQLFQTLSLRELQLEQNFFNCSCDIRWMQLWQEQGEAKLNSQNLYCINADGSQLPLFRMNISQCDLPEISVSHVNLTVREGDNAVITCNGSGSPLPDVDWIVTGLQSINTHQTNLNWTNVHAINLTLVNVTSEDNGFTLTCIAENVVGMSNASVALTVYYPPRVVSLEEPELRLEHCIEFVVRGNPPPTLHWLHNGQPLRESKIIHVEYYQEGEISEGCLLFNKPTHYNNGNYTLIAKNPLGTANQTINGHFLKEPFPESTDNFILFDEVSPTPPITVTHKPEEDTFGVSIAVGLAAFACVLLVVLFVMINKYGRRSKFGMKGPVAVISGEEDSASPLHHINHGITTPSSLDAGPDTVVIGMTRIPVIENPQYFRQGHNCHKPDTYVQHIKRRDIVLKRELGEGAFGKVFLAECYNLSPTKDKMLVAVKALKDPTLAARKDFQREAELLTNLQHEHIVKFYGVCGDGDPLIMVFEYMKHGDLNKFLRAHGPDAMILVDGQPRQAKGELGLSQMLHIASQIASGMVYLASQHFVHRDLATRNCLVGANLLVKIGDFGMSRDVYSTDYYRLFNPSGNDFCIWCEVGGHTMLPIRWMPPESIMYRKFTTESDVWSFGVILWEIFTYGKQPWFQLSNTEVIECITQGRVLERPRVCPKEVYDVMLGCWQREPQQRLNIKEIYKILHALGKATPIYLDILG
UniProt Q15118, whole entry, looked up: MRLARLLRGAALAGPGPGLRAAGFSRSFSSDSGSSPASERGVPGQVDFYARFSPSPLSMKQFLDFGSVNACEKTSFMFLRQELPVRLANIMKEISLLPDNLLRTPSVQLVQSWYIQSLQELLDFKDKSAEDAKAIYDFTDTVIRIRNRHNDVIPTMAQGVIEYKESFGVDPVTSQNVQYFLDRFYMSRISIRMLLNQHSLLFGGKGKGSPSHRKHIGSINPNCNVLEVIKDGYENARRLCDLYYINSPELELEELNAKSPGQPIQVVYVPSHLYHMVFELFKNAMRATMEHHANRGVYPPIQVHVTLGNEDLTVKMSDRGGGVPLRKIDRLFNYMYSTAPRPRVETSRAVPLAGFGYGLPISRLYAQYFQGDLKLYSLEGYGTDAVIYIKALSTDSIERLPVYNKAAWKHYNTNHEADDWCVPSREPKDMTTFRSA
UniProt O15530: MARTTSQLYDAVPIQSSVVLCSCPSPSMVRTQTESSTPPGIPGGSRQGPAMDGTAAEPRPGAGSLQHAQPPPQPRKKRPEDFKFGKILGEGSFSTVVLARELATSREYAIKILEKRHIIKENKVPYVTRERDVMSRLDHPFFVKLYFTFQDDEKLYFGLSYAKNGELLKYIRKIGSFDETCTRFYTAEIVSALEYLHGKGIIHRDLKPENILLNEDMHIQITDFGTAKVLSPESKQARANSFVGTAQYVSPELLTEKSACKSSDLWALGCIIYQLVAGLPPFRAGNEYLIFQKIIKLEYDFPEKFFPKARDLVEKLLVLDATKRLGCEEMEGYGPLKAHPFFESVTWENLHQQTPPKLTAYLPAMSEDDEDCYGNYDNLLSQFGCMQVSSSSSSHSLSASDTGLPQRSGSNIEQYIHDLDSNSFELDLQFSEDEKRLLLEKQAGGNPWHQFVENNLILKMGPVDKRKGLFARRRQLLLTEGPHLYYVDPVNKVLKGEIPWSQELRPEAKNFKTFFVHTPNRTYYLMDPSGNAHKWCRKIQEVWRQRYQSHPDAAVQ
UniProt P42356, whole entry, looked up: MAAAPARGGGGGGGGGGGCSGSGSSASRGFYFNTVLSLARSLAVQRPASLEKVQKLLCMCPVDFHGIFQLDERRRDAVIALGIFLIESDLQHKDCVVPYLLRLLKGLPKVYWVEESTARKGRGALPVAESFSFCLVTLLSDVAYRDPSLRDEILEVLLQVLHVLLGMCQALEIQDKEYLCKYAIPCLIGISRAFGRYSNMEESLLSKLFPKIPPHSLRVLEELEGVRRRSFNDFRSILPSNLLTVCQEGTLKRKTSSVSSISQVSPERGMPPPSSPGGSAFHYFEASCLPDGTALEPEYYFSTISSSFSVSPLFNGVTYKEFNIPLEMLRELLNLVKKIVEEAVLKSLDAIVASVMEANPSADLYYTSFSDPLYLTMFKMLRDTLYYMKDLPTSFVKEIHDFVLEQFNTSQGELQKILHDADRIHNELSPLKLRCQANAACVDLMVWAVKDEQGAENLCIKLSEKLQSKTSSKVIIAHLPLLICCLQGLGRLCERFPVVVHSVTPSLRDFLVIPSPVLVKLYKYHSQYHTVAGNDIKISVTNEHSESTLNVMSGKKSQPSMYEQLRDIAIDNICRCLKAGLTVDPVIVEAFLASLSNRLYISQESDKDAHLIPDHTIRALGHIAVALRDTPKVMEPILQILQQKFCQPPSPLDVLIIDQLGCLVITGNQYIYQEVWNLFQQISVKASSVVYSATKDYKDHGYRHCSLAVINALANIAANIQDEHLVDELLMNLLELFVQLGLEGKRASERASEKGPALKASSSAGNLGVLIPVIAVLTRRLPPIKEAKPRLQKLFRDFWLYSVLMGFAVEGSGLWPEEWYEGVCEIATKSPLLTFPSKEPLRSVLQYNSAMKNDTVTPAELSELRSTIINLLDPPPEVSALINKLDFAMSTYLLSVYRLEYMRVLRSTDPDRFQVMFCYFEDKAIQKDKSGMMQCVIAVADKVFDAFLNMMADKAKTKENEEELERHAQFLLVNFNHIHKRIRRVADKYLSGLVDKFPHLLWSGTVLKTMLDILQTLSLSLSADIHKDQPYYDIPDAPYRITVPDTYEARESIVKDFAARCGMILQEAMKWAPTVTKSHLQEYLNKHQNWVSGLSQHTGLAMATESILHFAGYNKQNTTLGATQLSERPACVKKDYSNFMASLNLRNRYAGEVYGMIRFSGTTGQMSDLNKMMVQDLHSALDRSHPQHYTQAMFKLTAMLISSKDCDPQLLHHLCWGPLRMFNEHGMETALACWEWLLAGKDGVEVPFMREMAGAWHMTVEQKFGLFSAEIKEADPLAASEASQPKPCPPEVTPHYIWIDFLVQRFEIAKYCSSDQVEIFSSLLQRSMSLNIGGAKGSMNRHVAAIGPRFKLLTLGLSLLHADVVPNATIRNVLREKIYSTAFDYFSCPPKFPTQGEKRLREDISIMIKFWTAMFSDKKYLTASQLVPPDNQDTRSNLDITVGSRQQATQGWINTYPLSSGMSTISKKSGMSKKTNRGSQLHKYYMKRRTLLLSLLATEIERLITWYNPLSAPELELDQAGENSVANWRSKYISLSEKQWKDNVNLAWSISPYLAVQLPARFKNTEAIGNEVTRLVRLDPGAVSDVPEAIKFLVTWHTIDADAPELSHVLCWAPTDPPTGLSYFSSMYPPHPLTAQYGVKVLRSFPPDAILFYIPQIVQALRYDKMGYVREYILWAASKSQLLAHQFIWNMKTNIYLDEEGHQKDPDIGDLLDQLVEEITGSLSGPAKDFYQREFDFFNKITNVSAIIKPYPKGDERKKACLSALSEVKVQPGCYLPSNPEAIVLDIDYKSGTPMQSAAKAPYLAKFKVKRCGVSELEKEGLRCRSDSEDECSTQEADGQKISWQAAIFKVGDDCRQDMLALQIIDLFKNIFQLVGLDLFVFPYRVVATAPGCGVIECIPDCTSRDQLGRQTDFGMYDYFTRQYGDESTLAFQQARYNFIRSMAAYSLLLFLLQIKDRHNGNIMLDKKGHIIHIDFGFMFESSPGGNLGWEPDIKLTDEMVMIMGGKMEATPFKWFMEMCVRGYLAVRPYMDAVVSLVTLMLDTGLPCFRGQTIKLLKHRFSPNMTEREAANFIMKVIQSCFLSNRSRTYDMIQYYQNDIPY
UniProt Q9UBF8: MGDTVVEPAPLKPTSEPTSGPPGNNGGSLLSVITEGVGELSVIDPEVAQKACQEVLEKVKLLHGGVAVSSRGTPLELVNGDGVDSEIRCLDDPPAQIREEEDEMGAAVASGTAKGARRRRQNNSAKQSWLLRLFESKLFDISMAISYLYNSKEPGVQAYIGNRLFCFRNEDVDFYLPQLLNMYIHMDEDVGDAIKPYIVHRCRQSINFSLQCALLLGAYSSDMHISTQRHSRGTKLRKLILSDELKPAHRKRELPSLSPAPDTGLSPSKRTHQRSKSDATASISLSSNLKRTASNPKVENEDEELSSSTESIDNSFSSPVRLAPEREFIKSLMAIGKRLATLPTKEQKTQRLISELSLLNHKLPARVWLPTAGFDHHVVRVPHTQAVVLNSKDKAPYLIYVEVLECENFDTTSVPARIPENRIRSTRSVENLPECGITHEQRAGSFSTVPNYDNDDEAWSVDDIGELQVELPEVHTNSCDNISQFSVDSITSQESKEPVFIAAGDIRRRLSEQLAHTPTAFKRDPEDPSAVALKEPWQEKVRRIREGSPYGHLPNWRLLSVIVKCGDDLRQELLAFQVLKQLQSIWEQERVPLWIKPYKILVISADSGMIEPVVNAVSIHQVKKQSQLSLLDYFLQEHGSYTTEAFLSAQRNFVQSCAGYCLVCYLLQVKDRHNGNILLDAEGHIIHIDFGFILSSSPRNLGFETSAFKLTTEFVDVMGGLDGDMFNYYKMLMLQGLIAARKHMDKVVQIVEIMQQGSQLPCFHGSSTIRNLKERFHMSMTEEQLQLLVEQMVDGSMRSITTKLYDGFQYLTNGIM
UniProt Q14289, whole entry, looked up: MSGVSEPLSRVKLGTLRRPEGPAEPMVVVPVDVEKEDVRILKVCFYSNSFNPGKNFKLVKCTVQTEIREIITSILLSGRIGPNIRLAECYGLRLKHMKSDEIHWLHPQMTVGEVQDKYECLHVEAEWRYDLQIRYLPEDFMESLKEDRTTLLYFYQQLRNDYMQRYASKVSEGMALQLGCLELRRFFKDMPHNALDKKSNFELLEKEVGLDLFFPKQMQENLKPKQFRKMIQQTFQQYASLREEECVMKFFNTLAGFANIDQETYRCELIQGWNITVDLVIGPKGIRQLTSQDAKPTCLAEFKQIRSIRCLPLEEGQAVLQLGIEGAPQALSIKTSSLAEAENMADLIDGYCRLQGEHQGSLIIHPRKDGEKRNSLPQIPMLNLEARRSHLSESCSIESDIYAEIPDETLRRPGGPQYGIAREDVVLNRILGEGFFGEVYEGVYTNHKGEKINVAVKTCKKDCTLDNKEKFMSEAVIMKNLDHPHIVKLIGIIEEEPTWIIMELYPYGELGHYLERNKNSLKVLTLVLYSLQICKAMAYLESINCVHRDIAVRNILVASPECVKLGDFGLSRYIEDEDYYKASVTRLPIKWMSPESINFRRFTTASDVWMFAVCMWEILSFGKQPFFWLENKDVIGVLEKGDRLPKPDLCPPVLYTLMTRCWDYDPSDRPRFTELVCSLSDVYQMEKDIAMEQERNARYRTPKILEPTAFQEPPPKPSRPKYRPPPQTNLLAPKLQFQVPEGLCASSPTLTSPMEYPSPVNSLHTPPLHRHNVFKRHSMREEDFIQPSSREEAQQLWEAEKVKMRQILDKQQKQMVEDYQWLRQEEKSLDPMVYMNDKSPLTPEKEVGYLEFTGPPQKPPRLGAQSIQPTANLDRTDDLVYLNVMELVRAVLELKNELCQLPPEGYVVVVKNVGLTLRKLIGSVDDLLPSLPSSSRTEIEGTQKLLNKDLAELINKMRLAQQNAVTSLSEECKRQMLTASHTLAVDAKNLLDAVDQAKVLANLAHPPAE
UniProt Q13546: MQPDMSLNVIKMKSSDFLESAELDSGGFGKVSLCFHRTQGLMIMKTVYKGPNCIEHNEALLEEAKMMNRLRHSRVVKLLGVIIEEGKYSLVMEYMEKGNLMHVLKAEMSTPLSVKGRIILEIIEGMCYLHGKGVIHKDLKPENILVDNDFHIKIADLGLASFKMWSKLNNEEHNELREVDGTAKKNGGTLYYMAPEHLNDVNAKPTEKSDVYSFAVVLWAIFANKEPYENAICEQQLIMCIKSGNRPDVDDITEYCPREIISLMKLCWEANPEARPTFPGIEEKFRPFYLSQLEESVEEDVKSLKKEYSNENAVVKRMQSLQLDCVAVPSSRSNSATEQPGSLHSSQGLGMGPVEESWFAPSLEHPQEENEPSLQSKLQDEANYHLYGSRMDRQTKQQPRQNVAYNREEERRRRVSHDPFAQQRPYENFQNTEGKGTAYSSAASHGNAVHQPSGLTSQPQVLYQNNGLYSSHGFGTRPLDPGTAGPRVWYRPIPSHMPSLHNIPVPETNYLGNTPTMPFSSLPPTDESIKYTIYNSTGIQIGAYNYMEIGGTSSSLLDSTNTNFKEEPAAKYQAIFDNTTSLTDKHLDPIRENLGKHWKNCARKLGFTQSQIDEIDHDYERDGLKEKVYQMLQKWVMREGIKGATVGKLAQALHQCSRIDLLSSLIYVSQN

How the values were obtained:
Assay in all cases: number of time points (of 5) at which kinase-Nluc abundance scored as decreased, DMSO-normalised (count); higher = more persistent destabilization
Details in all cases: K562; 2-18 h
NTRK3 = NTRK3 (UniProt Q16288)
PAK4 = PAK4 (UniProt O96013)
PBK = PBK (UniProt Q96KB5)
PDGFRB = PDGFRB (UniProt P09619)
PDK1 = PDK1 (UniProt Q15118)
PDPK1 = PDPK1 (UniProt O15530)
PIK4CA = PIK4CA (UniProt P42356)
PIK4CB = PIK4CB (UniProt Q9UBF8)
PLK1 = PLK1 (UniProt P53350)
PRKAA1 = PRKAA1 (UniProt Q13131)
PRKCA = PRKCA (UniProt P17252)
PTK2 = PTK2 (UniProt Q05397)
PTK2B = PTK2B (UniProt Q14289)
RAF1 = RAF1 (UniProt P04049)
[1] = molecular target: RAF1_S257L (clone: RAF1_mut) (UniProt P04049)
RET = RET (UniProt P07949)
[2] = molecular target: RET_M918T (clone: RET_mut) (UniProt P07949)
RIOK1 = RIOK1 (UniProt Q9BRS2)
RIPK1 = RIPK1 (UniProt Q13546)
RIPK2 = RIPK2 (UniProt O43353)

Measured: number of time points

C=CC(=O)Nc1cccc(Nc2nc(Nc3ccc(Oc4ccnc(C(=O)NC)c4)cc3)ncc2F)c1 (2.5 µM)
0: NTRK3 | PAK4 | PBK | PDGFRB | PDK1 | PDPK1 | PIK4CA | PIK4CB | PLK1 | PRKAA1 | PRKCA | PTK2 | PTK2B | RAF1 | [1] | RET | [2] | RIOK1 | RIPK1 | RIPK2

Cc1nc(Nc2ncc(C(=O)Nc3c(C)cccc3Cl)s2)cc(N2CCN(C(=O)CCCCCCC(=O)N[C@H](C(=O)N3C[C@H](O)C[C@H]3C(=O)NCc3ccc(-c4scnc4C)cc3)C(C)(C)C)CC2)n1 (2.5 µM)
0: PBK | PDK1 | [2]
2: PIK4CB | PLK1 | PRKAA1 | PTK2 | RET | RIOK1
4: RIPK2
1: PAK4 | PRKCA | PTK2B
3: NTRK3 | PDGFRB | PDPK1 | PIK4CA | RAF1 | [1] | RIPK1

Cc1occ2c1C(=O)c1c(O)ccc(O)c1C2 (2.5 µM)
0: NTRK3 | PAK4 | PBK | PDGFRB | PDK1 | PDPK1 | PIK4CA | PIK4CB | PLK1 | PRKAA1 | PRKCA | PTK2 | PTK2B | RAF1 | [1] | RET | [2] | RIOK1 | RIPK1 | RIPK2

O=C(CCc1ccc2n1[B-](F)(F)[N+]1=C(c3ccc[nH]3)C=CC1=C2)ON1C(=O)CCC1=O [Py-BODIPY-NHS ester] (2.5 µM)
0: NTRK3 | PAK4 | PBK | PDGFRB | PDK1 | PDPK1 | PIK4CA | PIK4CB | PLK1 | PRKAA1 | PRKCA | PTK2 | PTK2B | RAF1 | [1] | RET | [2] | RIOK1 | RIPK1 | RIPK2

O=c1ccc2cc(O)c(O)cc2o1 [Esculetin] (10 µM)
0: NTRK3 | PAK4 | PBK | PDGFRB | PDK1 | PDPK1 | PIK4CA | PIK4CB | PLK1 | PRKAA1 | PRKCA | PTK2 | PTK2B | RAF1 | [1] | RET | [2] | RIOK1 | RIPK1 | RIPK2

Cc1cc(=O)[nH]c(=S)[nH]1 [Methylthiouracil] (10 µM)
0: NTRK3 | PAK4 | PBK | PDGFRB | PDK1 | PDPK1 | PIK4CA | PIK4CB | PLK1 | PRKAA1 | PRKCA | PTK2 | PTK2B | RAF1 | [1] | RET | [2] | RIOK1 | RIPK1 | RIPK2

C[C@H](CC[C@@H](O)C(C)(C)O)[C@H]1CC[C@@]2(C)[C@@H]3CC=C4[C@@H](CC[C@H](O)C4(C)C)[C@]3(C)[C@H](O)C[C@]12C [Mogrol] (10 µM)
0: NTRK3 | PAK4 | PBK | PDGFRB | PDK1 | PDPK1 | PIK4CA | PIK4CB | PLK1 | PRKAA1 | PRKCA | PTK2 | PTK2B | RAF1 | [1] | RET | [2] | RIOK1 | RIPK1 | RIPK2

Cn1cc(C2=C(c3c4n(c5ccccc35)CCC(CN)C4)C(=O)NC2=O)c2ccccc21 (stereo not given) [Bisindolylmaleimide X (hydrochloride)] (2.5 µM)
0: NTRK3 | PAK4 | PBK | PDGFRB | PDK1 | PDPK1 | PIK4CA | PIK4CB | PLK1 | PRKAA1 | PRKCA | PTK2 | PTK2B | RAF1 | [1] | RET | [2] | RIOK1 | RIPK1 | RIPK2
